Measured values reported in patent publication US20220047556A1 (INSERM (Institut National de la Santé et de la Recherche …, priority 2018, published 2022).

Test system: PCs activity (MT1-MMP cleavage)
Settings: Western blot, FIG. 1G

Clc1ccc(CSC(Cn2ccnc2)c2ccc(Cl)cc2Cl)cc1 (stereo not shown) [Sulconazole, 1-[2-[(4-chlorophenyl)methylsulfanyl]-2-(2,4-dichlorophenyl)ethyl]imidazole]
cleavage of MT1-MMP (accumulation of unprocessed form, 63 KDa): inhibits the cleavage of MT1-MMP
